# Results taken from PubChem BioAssay AID2685 (National Center for Advancing Translational Sciences (NCATS), 2010).
# This is one part of the list. These are further read-outs of the screen, such as a control signal, another cell line or another target. No call is given for them. Most of these compounds were active or inconclusive in the main read-out, so they are no random draw. Potencies come from curve fits of mixed quality, noted in brackets.
# Assay: qHTS Assay for Lipid Storage Modulators in Drosophila S3 Cells;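 for cell number change: cells counted by Cell Tracker Red CMTPX staining in the red channel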
# Conditions: BODIPY lipid droplet fluorescence, 18-24 h; for cell number change: measured here: cell count max response, cells fed with added oleic acid
# Outline: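 Laser-scanning cytometry quantifies lipid droplet accumulation (500–530 nm total intensity; droplet/cell object ratio) in oleic acid-fed (400 uM added) Drosophila S3 cells treated with a concentration series. 20 uM Triacsin C defined 100% inhibition.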
# [1] = measured here: cell number channel AC50, cells fed with added oleic acid
# [2] = measured here: lipid fluorescence (Fed channel) AC50, cells fed with added oleic acid
SMILES,cell number change [%],AC50 [1],AC50 [2]
Cc1cc(NC(=O)Nc2cccc(C(F)(F)F)c2)no1,-34.8,"16.4 µM [falling, single point]",–
COc1cc(OC)cc(C(=O)N[C@H](C(=O)Nc2nc3ccccc3[nH]2)C(C)C)c1,67.1,"18.4 µM [rising, single point]","29.1 µM [rising, partial curve]"
CCCCC(=O)Nc1cc(Cl)ccc1C(=O)O,154,–,–
O=C(CSc1ncn[nH]1)Nc1ccc2c(c1)CCC2,9.04,–,"6.51 µM [rising, partial curve, poor fit]"
CCn1c(Cl)c(C=O)s/c1=N\S(=O)(=O)c1ccccc1,-53.5,"3.66 µM [falling, full curve]","5.17 µM [falling, full curve]"
Cc1ccc(C)c(CSc2ncccc2C(=O)O)c1,1.79,–,"6.51 µM [rising, single point]"
O=C(CC(c1ccccc1)c1ccccc1)NCCO,-3.3,–,"23.1 µM [falling, partial curve]"
COc1ccc(NC(=O)Cn2c(=O)sc3ccccc32)cc1,-0.397,–,"8.2 µM [rising, partial curve, poor fit]"
CC(=O)c1c(C)[nH]c(C(=O)Nc2cccnc2)c1C,-0.883,–,"0.651 µM [falling, full curve]"
CCC(C)N(C(=O)COC(=O)CSc1ccc([N+](=O)[O-])cc1)C1CCS(=O)(=O)C1 (stereo unspecified),-9.35,–,"6.51 µM [rising, single point]"
Cc1cc(C)c2nc(SCC(=O)Nc3cc(C)on3)c(C)cc2c1,12.4,–,"0.206 µM [rising, single point]"
CC(C)Cc1nc2oc3c(=O)[nH]cnc3c2c2c1CCC2,-3.51,–,–
Fc1ccc(-c2ccnc3nc(N4CCN(c5ccccc5)CC4)nn23)cc1,-20.6,–,"23.1 µM [falling, single point]"
N/C(=N\c1nc2c(c(=O)[nH]1)CCC2)Nc1cccc(Cl)c1,-21.3,–,"1.84 µM [rising, partial curve]"
O=C(CN1C(=O)c2ccccc2S1(=O)=O)c1ccccc1Cl,-31.9,"23.1 µM [falling, single point]",–
CC(=O)N1N=C(c2ccccc2O)OC1(C)CC(=O)Nc1ccccc1 (stereo unspecified),–,–,"29.1 µM [rising, single point]"
CS(=O)(=O)c1nc(-c2ccco2)cc(C(F)(F)F)n1,-92.6,"16.4 µM [falling, partial curve]","16.4 µM [falling, partial curve]"
CCCCN1C(=O)/C(=C/C=C2\Oc3ccccc3N2CC)SC1=S,-18,"2.59 µM [falling, single point]","3.66 µM [falling, full curve]"
O=C(Nc1ccccc1[N+](=O)[O-])C1=C(O)CCn2c1nc1ccccc12,66.7,"23.1 µM [rising, single point]","5.8 µM [rising, full curve]"
COc1ccc2nc(Cl)c(/C=N/Nc3ccccn3)cc2c1,-34,"23.1 µM [falling, single point]",–

SMILES,cell number change [%],AC50 [1],AC50 [2]
O=C(OCCN1CCCC1=O)c1cncc(Br)c1,25.4,–,"0.00731 µM [rising, full curve, poor fit]"
CCc1nc(-c2ccc(C)nc2OC)no1,15.8,–,–
O=C1CNC(=S)N1C1CCCCCC1,35.5,"13 µM [rising, partial curve, poor fit]",–
O=C(CN1C(=O)/C(=C/c2ccco2)SC1=S)NC1CCS(=O)(=O)C1 (stereo unspecified),42.2,"0.0206 µM [rising, full curve, poor fit]","8.2 µM [rising, partial curve]"
Cc1ccc(C(=O)O/N=C2\CC3CCC2(C)C3(C)C)cc1 (stereo unspecified),-35.1,"29.1 µM [falling, single point]","29.1 µM [falling, single point]"
C/C(CC(=O)Nc1cccc(C(F)(F)F)c1)=N\NC(=O)C1CCCCC1,-4.02,"6.51 µM [falling, partial curve, poor fit]",–
O=C(/C=C/c1ccccc1)NC(=S)Nc1ccc(CN2CCOCC2)cc1,2.22,–,"16.4 µM [rising, partial curve, poor fit]"
Cc1cccc(NC(=O)Nc2ccc(C)cc2Br)c1,-38.2,"16.4 µM [falling, single point]",–
C=CCSc1nnc(CCc2ccccc2)n1N,-4.18,–,"1.84 µM [falling, single point]"
Fc1ccccc1CSc1nnc(-c2cccs2)o1,102,"18.4 µM [rising, partial curve]","18.4 µM [rising, single point]"
CCSC1=N/C(=C\c2ccc(OC)cc2)C(=O)N1,23.6,"0.366 µM [rising, partial curve, poor fit]",–
CCN(CC)S(=O)(=O)c1ccc(N2CCCC2)c(NC(=O)c2c(-c3ccccc3)noc2C)c1,14.1,–,"5.17 µM [falling, single point]"
NC(=Nc1ccc(Cl)cc1)c1ccccc1,-49.9,"8.2 µM [falling, partial curve]",–
Cc1cccc(NC(=O)C2CC(=O)n3cnnc3S2)c1 (stereo unspecified),–,–,"11.6 µM [falling, partial curve]"
N#CC1=C(SCC(=O)Nc2cccc3cccnc23)NC(=O)C(C#N)C12CCCCC2 (stereo unspecified),-22.6,–,"0.366 µM [rising, full curve, poor fit]"
O=C(NCC(c1ccco1)N1CCCCC1)c1ccc(NS(=O)(=O)c2ccc(F)cc2)cc1 (stereo unspecified),-1.11,–,"4.61 µM [falling, partial curve, poor fit]"
O=C(NCc1cccc(F)c1)C1CCC(=O)N(C2CCCC2)C1 (stereo unspecified),–,–,"2.31 µM [rising, partial curve]"
COc1ccc(C2CC(c3cccs3)=NN2C(=O)CSc2nc(=O)n3ccc(C)cc3n2)cc1 (stereo unspecified),39.8,"1.03 µM [rising, full curve]",–
CC(C)(C)CC(=O)Nc1ccccc1N1CCN(c2ccc(F)cc2)CC1,-5.28,–,–
Cc1cccc(OCCN2C(=O)c3ccccc3C2=O)c1,27.3,–,"10 µM [rising, partial curve, poor fit]"

# Ordered by length of the SMILES (falling): part of the list above.
SMILES,cell number change [%],AC50 [1],AC50 [2]
CCN(CC)S(=O)(=O)c1ccc(N2CCCC2)c(NC(=O)c2c(-c3ccccc3)noc2C)c1,14.1,–,"5.17 µM [falling, single point]"
COc1ccc(C2CC(c3cccs3)=NN2C(=O)CSc2nc(=O)n3ccc(C)cc3n2)cc1 (stereo unspecified),39.8,"1.03 µM [rising, full curve]",–
O=C(NCC(c1ccco1)N1CCCCC1)c1ccc(NS(=O)(=O)c2ccc(F)cc2)cc1 (stereo unspecified),-1.11,–,"4.61 µM [falling, partial curve, poor fit]"
N#CC1=C(SCC(=O)Nc2cccc3cccnc23)NC(=O)C(C#N)C12CCCCC2 (stereo unspecified),-22.6,–,"0.366 µM [rising, full curve, poor fit]"
O=C(CN1C(=O)/C(=C/c2ccco2)SC1=S)NC1CCS(=O)(=O)C1 (stereo unspecified),42.2,"0.0206 µM [rising, full curve, poor fit]","8.2 µM [rising, partial curve]"
C/C(CC(=O)Nc1cccc(C(F)(F)F)c1)=N\NC(=O)C1CCCCC1,-4.02,"6.51 µM [falling, partial curve, poor fit]",–
CC(C)(C)CC(=O)Nc1ccccc1N1CCN(c2ccc(F)cc2)CC1,-5.28,–,–
O=C(NCc1cccc(F)c1)C1CCC(=O)N(C2CCCC2)C1 (stereo unspecified),–,–,"2.31 µM [rising, partial curve]"
COc1ccc2nc(Cl)c(/C=N/Nc3ccccn3)cc2c1,-34,"23.1 µM [falling, single point]",–
Cc1cccc(NC(=O)C2CC(=O)n3cnnc3S2)c1 (stereo unspecified),–,–,"11.6 µM [falling, partial curve]"
CCSC1=N/C(=C\c2ccc(OC)cc2)C(=O)N1,23.6,"0.366 µM [rising, partial curve, poor fit]",–
Cc1cccc(NC(=O)Nc2ccc(C)cc2Br)c1,-38.2,"16.4 µM [falling, single point]",–
O=C(OCCN1CCCC1=O)c1cncc(Br)c1,25.4,–,"0.00731 µM [rising, full curve, poor fit]"
Fc1ccccc1CSc1nnc(-c2cccs2)o1,102,"18.4 µM [rising, partial curve]","18.4 µM [rising, single point]"
NC(=Nc1ccc(Cl)cc1)c1ccccc1,-49.9,"8.2 µM [falling, partial curve]",–
CCc1nc(-c2ccc(C)nc2OC)no1,15.8,–,–
O=C1CNC(=S)N1C1CCCCCC1,35.5,"13 µM [rising, partial curve, poor fit]",–

# Additional compounds:

SMILES,cell number change [%],AC50 [1],AC50 [2]
O=C(COc1ccccc1)Nc1ccccc1F,9.12,–,–
CCN(CC)C(=O)C1=C(C)Nc2nnnn2C1c1cccnc1 (stereo unspecified),-10.1,–,"0.58 µM [falling, full curve, poor fit]"
COc1cc(C2C(C(=O)c3cccs3)=C(O)C(=O)N2c2cc(C)on2)ccc1O (stereo unspecified),6.44,–,"0.164 µM [falling, full curve]"
O=C(OCc1cccc([N+](=O)[O-])c1)c1ccc2ccccc2n1,7.46,"5.17 µM [falling, single point]","0.326 µM [falling, full curve, poor fit]"
Cc1ccc(-n2c(O)c(/C=N/NC(=O)C3COc4ccccc4O3)c3ccccc3c2=O)cc1 (stereo unspecified),-3.43,–,–
CCc1nnc(NC(=O)c2ccc(Br)c(S(=O)(=O)N3CCOCC3)c2)s1,-15.3,–,"29.1 µM [rising, partial curve]"
O=C(Nc1cc(Br)ccc1O)c1cc(-c2ccco2)on1,39.2,"29.1 µM [rising, partial curve, poor fit]","16.4 µM [rising, partial curve, poor fit]"
CO/N=C/CC(=O)c1ccc(OC)cc1,9.74,–,"4.11 µM [falling, single point]"
Cc1cc(C)c(C(=O)NC2CC(C)(C)Cc3c2cnn3-c2cccc(F)c2)[nH]1 (stereo unspecified),-30.9,"20.6 µM [falling, single point]",–
COC(=O)[C@H](CCSC)NC(=O)Nc1ccc(C)c(C)c1,–,–,"0.116 µM [falling, single point]"
CN1CC2([N+](=O)[O-])CC=C(OCCO)C([N+](=O)[O-])(C1)C2 (stereo unspecified),2.51,–,"7.31 µM [falling, partial curve, poor fit]"
Cc1cccc(NC(=S)NNC(=S)NCc2ccccc2)c1,97.9,"29.1 µM [rising, single point]",–
Cc1cccc(-n2ccc(=O)c(C(=O)Nc3ccc(S(=O)(=O)Nc4onc(C)c4C)cc3)n2)c1,8.58,–,"29.1 µM [rising, single point]"
CN1/C(=C/C(=O)c2cccs2)Sc2ccccc21,113,"10.3 µM [rising, partial curve]","11.6 µM [rising, partial curve]"
O=C(O)C1CCN(S(=O)(=O)N2CCOCC2)CC1,-1.63,–,"0.103 µM [falling, full curve, poor fit]"
Cc1cccc(NC(=O)c2cc(=O)n(Cc3ccccc3)c(=O)[nH]2)c1,-29.6,–,"16.4 µM [falling, single point]"
CCN(CC)CCN1C(=O)c2ccccc2NC1c1ccc(F)cc1 (stereo unspecified),-19.2,–,"7.31 µM [rising, single point]"
Cc1ccc(OCCN(C)C(=O)c2cc(COc3ccc(F)cc3F)on2)cc1,-16.6,–,–
COc1cccc(-c2cc(C(=O)N3CC4(C)CC3CC(C)(C)C4)no2)c1 (stereo unspecified),-38,"29.1 µM [falling, single point]","29.1 µM [falling, single point]"
Cc1ccc(-c2cc(C(=O)NCC3CCCO3)no2)cc1 (stereo unspecified),13,–,"7.31 µM [rising, partial curve]"
